# Measured values from article PMC5933801, “Cryo-EM structure of infectious bronchitis coronavirus spike protein reveals structural and functional evolution of coronavirus spike proteins” (PLoS Pathogens, 2018).
# Results are given in words; binding and its absence hold for the method and conditions named. Some entries that bind do so weakly or less than the wild type.
# B1: IBV spike ectodomain (avian infectious bronchitis coronavirus, strain M41) (domain or fragment)
# chain: LYDSSSYVYYYQSAFRPPNGWHLHGGAYAVVNISSESNNAGSSPGCIVGTIHGGRVVNASSIAMTAPSSGMAWSSSQFCTAHCNFSDTTVFVTHCYKYDGCPITGMLQKNFLRVSAMKNGQLFYNLTVSVAKYPTFKSFQCVNNLTSVYLNGDLVYTSNETTDVTSAGVYFKAGGPITYKVMRKVKALAYFVNGTAQDVILCDGSPRGLLACQYNTGNFSDGFYPFINSSLVKQKFIVYRENSVNTTFTLHNFTFHNETGANPNPSGVQNILTYQTQTAQSGYYNFNFSFLSSFVYKESNFMYGSYHPSCNFRLETINNGLWFNSLSVSIAYGPLQGGCKQSVFSGRATCCYAYSYGGPSLCKGVYSGELDLNFECGLLVYVTKSGGSRIQTATEPPVITRHNYNNITLNTCVDYNIYGRTGQGFITNVTDSAVSYNYLADAGLAILDTSGSIDIFVVQGEYGLTYYKVNPCEDVNQQFVVSGGKLVGILTSRNETGSQLLENQFYIKITNGTRRFRRSITENVANCPYVSYGKFCIKPDGSIATIVPKQLEQFVAPLLNVTENVLIPNSFNLTVTDEYIQTRMDKVQINCLQYVCGNSLDCRDLFQQYGPVCDNILSVVNSIGQKEDMELLNFYSSTKPAGFNTPFLSNVSTGEFNISLLLTTPSSPRRRSFIEDLLFTSVESVGLPTDDAYKNCTAGPLGFLKDLACAREYNGLLVLPPIITAEMQTLYTSSLVASMAFGGITAAGAIPFATQLQARINHLGITQSLLLKNQEKIAASFNKAIGRMQEGFRSTSLALQQIQDVVNKQSAILTETMASLNKNFGAISSVIQEIYQQLDAIQANAQVDRLITGRLSSLSVLASAKQAEHIRVSQQRELATQKINECVKSQSIRYSFCGNGRHVLTIPQNAPNGIVFIHFSYTPDSFVNVTAIVGFCVKPANASQYAIVPANGRGIFIQVNGSYYITARDMYMPRAITAGDIVTLTSCQANYVSVNKTVITTFVDNDDFDFNDELSKWWNDTKHELPDFDKFNYTVPILDIDSEIDRIQGVIQGLNDSLIDLEKLS
# modifications: glycans N-linked to 20 sites
# notes: Spike protein of avian infectious bronchitis coronavirus (IBV) strain M41, GenBank ABI26423.1, ectodomain residues 20-1084; transmembrane anchor and intracellular domain replaced by GCN4 and His6 tags; The structural model holds residues 21-1022 except 702-710; The GCN4 tag is a trimerization tag; also called trimeric IBV spike ectodomain; source: Sf9 insect cells (Bac-to-Bac), harvested from …
# Target: IBV spike ectodomain (avian infectious bronchitis coronavirus, strain M41) (avian infectious bronchitis coronavirus (IBV), strain M41) (UniProt P12651)
# Test: cryo-EM structure; IBV spike ectodomain 0.35 mg/ml in 2 mM Tris pH7.2 and 20 mM NaCl, plunge-frozen; pre-fusion state; three-fold noncrystallographic symmetry constraints in refinement; both purified
binder,measurement,value
B1,binding,binds
